Results as given in PubChem BioAssay AID540275 (National Center for Advancing Translational Sciences (NCATS), 2011).
Hit rate of the full screen: of about 320,000 compounds, about 620 (0.19%) were called active. Inconclusive means that the source gave no clear call. Such entries were picked first, then a sample of the others. No stated cut-off is given here; in the data, active means activation above about 80%; inconclusive means between about 30% and that limit; inactive means weaker than that.

Chains of the proteins cited; added tags and fusions are not shown.
UniProt Q8NER1, whole entry, looked up: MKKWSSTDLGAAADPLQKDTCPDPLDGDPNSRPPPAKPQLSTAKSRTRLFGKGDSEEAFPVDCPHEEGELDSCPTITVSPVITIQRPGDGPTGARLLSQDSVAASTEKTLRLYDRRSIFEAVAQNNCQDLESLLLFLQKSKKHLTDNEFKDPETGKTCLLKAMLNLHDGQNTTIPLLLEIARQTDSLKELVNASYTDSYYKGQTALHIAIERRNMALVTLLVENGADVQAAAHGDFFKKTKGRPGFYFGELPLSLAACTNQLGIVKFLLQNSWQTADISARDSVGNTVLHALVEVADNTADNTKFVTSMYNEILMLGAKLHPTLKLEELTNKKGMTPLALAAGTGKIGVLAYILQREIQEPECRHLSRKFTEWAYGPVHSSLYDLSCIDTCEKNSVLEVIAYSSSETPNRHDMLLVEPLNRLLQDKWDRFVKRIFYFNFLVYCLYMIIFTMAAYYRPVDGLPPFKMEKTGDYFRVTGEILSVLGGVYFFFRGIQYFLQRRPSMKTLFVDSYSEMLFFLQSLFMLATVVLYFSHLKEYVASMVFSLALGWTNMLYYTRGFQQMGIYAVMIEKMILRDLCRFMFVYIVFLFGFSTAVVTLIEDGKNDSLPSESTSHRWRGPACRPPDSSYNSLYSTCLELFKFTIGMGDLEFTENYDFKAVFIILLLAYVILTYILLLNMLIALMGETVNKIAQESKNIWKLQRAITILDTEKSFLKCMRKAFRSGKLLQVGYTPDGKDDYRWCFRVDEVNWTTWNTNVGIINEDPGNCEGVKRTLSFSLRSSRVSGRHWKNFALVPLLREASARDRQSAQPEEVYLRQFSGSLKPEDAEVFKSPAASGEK

target: Transient receptor potential cation channel subfamily V member 1 (Homo sapiens) (UniProt Q8NER1); assay: HTS Assay for Compounds that Act as Agonists of the Vanilloid Receptor 1; settings: TRPV1-expressing cells, Fluo-8 calcium influx, agonist mode; at 8.33 µM, hits give high values; further: 0% is about no effect
In short: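 TRPV1-expressing cells were cultured overnight at 35.5C and loaded with Fluo-8 calcium dye for 40 to 90 min at room temperature. After a 10 s baseline, compound was added and calcium influx was read kinetically for 3 min (ex 480/em 520 nm).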

SMILES	activation
Cc1ccc(C2CC(=O)C(C=NCCN3CCN(CC(=O)Nc4cc(C)cc(C)c4)CC3)=C(O)C2)cc1 (stereo not drawn)	inactive: -2.04%
OCCN(CCO)c1nc(N2CCCCC2)c2nc(N(CCO)CCO)nc(N3CCCCC3)c2n1	inconclusive: 58.5%
COc1ccccc1/C=C/C=N/n1c(-c2ccc(C)cc2)n[nH]c1=S	inactive: 21.1%
COc1ccc(-n2c(SC(C)C(=O)N3CCOCC3)nc3ccccc3c2=O)cc1 (stereo not drawn)	inconclusive: 45.9%
Cc1ccc(-n2cc(CNCCCn3cccn3)c(-c3cccc(C)c3)n2)cc1	inactive: 16.3%
COc1ccc(/C=C/C(=O)c2ccc(O)cc2)cc1COc1ccc(F)cc1	inconclusive: 63.6%
c1ccc(CCCCN2C(Nc3ccccc3)=NC[C@@H]2Cc2ccccc2)cc1	inactive: 5.64%
CCC1=C(OC(=O)N(CC)CC)N2C(=O)OC(=NCC3CC3)[C@]2(Cc2ccccc2)[C@H]2C1=CC[C@H]1C(=O)N(CC(=O)OC)C(=O)[C@H]12	inconclusive: 45.6%
CCOC(=O)c1c(NC(=S)NNS(=O)(=O)c2ccc(Br)cc2)sc2c1CCCCC2	inactive: 3.93%
CC1(C)CC(=O)C=C(c2ccc(F)cc2OCc2ccccc2)C1	inconclusive: 32.5%
Cc1ccc(C(=O)C(C)N2C(=O)NC(C)(c3ccccc3)C2=O)cc1 (stereo not drawn)	inactive: -2.8%
COc1ccc(Nc2nnc(C)c3ccccc23)cc1	inconclusive: 35.9%
Cn1c(/C(C#N)=C(\O)c2cc(Cl)sc2Cl)nc2ccccc21	inactive: 1.9%
O=C(COC(=O)c1cccc(Cl)c1Cl)NCc1cccs1	inconclusive: 51.1%
CCN(CC)c1ccc(NC(=O)CN2CCN(CC(=O)Nc3ccc(OC)cc3)CC2)cc1	inactive: 0.542%
N=c1sccn1CC(=O)Nc1ccc(S(N)(=O)=O)cc1	inactive: 0.0853%
COC(=O)[C@H](CC(C)C)NC(=O)NCCC1=CCCCC1	inconclusive: 48.3%
CCN(Cc1ccccc1)C(=O)CCS(=O)(=O)c1ccc2c(c1)NC(=O)CO2	inconclusive: 33.1%
Cc1cccc(NC(=O)c2nc[nH]c2C(=O)N[C@@H](CC(C)C)C(=O)OCc2ccccc2)c1	inconclusive: 56.2%
CCOC(=O)C1CCN(C(=O)CSc2ccc(Br)cc2)CC1	inconclusive: 49.6%
COC(=O)C1=C(N)Oc2cc(C)n(CC3CCCO3)c(=O)c2C1c1ccc(Cl)cc1 (stereo not drawn)	inconclusive: 38.5%
O=C(NC1CC1)c1ccc2c(c1)C1C3CCC(C3)C1C(c1ccccc1)N2 (stereo not drawn)	inconclusive: 64.7%
O=C(COc1cccnc1[N+](=O)[O-])N1N=C(c2ccc(Cl)cc2)CC1c1ccco1 (stereo not drawn)	inactive: -2.01%

An excerpt of these results, as a markdown table:

| SMILES | activation |
| --- | --- |
| N=c1sccn1CC(=O)Nc1ccc(S(N)(=O)=O)cc1 | inactive: 0.0853% |
| COC(=O)[C@H](CC(C)C)NC(=O)NCCC1=CCCCC1 | inconclusive: 48.3% |
